The values that follow come from PMC10245438, “Domino-like effect of C112R mutation on ApoE4 aggregation and its reduction by Alzheimer’s Disease drug candidate” (Molecular Neurodegeneration, 2023).

Amino acid sequences for entries named in this document (tags omitted). A change or cut given only in a name is not applied to a line headed by its entry. Chains listed by the source or under a name are the forms on record and can include a tag or linker.
APOE3M (P02649, form named): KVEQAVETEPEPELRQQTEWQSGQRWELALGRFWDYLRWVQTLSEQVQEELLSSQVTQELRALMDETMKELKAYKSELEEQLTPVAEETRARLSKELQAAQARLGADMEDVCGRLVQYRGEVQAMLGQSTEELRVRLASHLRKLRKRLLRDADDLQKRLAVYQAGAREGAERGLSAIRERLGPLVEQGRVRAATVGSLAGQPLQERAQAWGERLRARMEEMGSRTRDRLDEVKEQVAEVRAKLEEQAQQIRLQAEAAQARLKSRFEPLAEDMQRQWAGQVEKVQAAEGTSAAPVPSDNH
APOE3M-AS (P02649, form named): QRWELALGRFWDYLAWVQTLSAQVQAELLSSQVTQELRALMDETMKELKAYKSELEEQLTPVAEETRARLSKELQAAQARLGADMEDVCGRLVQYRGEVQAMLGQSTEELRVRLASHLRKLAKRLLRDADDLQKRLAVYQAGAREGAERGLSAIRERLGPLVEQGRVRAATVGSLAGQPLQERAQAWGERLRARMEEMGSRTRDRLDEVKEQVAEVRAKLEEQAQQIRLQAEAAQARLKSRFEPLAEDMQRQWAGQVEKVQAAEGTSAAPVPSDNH
APOE4M (P02649, form named): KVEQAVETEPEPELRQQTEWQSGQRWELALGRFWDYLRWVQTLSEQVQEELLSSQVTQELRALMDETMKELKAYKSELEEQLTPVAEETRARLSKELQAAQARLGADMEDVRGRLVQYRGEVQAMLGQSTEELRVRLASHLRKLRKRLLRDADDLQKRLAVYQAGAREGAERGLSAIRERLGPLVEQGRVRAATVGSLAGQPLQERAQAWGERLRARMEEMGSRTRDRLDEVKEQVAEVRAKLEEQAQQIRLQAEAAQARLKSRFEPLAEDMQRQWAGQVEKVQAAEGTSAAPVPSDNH
APOE4M-AS (P02649, form named): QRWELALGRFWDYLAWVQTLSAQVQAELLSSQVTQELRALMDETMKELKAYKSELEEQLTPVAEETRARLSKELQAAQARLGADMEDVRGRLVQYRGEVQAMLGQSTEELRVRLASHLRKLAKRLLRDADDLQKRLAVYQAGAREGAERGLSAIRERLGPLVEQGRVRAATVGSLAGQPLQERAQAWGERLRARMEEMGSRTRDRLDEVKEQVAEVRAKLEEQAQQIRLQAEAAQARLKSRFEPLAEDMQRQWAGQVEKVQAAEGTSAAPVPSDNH

For assay [1], the target named is APOE3M (human) (UniProt P02649). Nature of the assay: static light scattering; ApoE ~10 uM, 37 °C, SLS at 266 nm for 15 h, Tris buffer pH 7.4; also with SPA (20 mM) or tramiprosate, which lowered the signal of ApoE4; both purified.
Assay [2] shares this target. Description: HDX-MS; LC-MS/MS peptide mapping after protease digestion (nepenthesin-1 and pepsin) and deuterium uptake at 1, 2, 10 min; 10 mM Tris-HCl, 50 mM NaCl, room temperature; free or with SPA 1:1000; both purified.
A further assay deals with APOE3M-AS (human) (UniProt P02649). Description: dynamic light scattering; ~0.2 mg/ml, room temperature, size distribution after SEC purification; both purified.
Assay [3] concerns the target APOE4M (human) (UniProt P02649). Description: static light scattering; ApoE ~10 uM, 37 °C, SLS at 266 nm for 15 h, Tris buffer pH 7.4; also with SPA (20 mM) or tramiprosate, which lowered the signal of ApoE4; both purified.
Assay [4] shares this target. Description: HDX-MS; LC-MS/MS peptide mapping after protease digestion (nepenthesin-1 and pepsin) and deuterium uptake at 1, 2, 10 min; 10 mM Tris-HCl, 50 mM NaCl, room temperature; free or with SPA 1:1000; both purified.
The target in the next assay is APOE4M-AS (human) (UniProt P02649). Nature of the assay: dynamic light scattering; ~0.2 mg/ml, room temperature, size distribution after SEC purification; both purified.

These are yes or no findings as the source states them, for the method shown.

As to APOE3M (from UniProt P02649 19-317), the binding entry is “no binding (tested: ~ 10µM)” with APOE3M (human) [1] and “no binding” in the assay with APOE3M (human) [2].
For “APOE3M-AS (from UniProt P02649 42-317) (domain or fragment)”, the binding result in the assay with APOE3M-AS (human) is listed as “no binding”.
For APOE4M (from UniProt P02649 19-317), the binding entry is reported as “no binding (tested: ~ 10µM)” with APOE4M (human) [3] and “no binding” in the assay with APOE4M (human) [4].
For the substance “APOE4M-AS (from UniProt P02649 42-317) (domain or fragment)”, the binding result in the assay with APOE4M-AS (human) was “no binding”.
